Assay results published in patent US11104648B2, “Pyrazole derivative” (Zhejiang Research Institute of Chemical Industry Co., Ltd., priority 2018, dated 2021).
Some results were stated once for a whole list of compounds, not compound by compound.

Key:
Assay type in all cases: in vivo
[1] = system: Eggs of Tetranychus Cinnabarinus; assay: Activity assay of eggs of Tetranychus cinnabarinus (spray method, ovicidal); conditions: concentration 5 mg/L, non-incubated eggs counted as dead
Method: According to the solubility of the test compound, the crude drug was dissolved in N N-dimethylformamide, and then prepared into a test solution of the desired concentration with 1‰ Tween 80 aqueous solution. The content of N. N-dimethylformamide in the solution should not exceed 10%.
Spray method. The broad bean leaves with petioles were cut and inserted into a bottle with water. A certain number of female mites were placed, 24h later, adult mites were removed, and spray treatment was performed in 24 h. The experiment was repeated three times, and a blank control was set, and placed to an observation room (26±2° C., humidity 70%˜80%, 16h light per day) for culture. When the blank control group was incubated, the results were investigated. The non-incubated ones were used as death for investigation.

[2] = system: adult Tetranychus cinnabarinus; assay: Activity assay of adult Tetranychus cinnabarinus (whole-plant spray on bean seedlings); conditions: concentration 2.5 mg/L; 48 h
Method: According to the solubility of the test compound, the crude drug was dissolved in N, N-dimethlfornamide, and then prepared into a test solution of the desired concentration with 1‰ Tween 80 aqueous solution. The content of N,N-dimethylformamide in the solution should not exceed 10%.
Two euphylla bean seedlings were taken, after inoculated with adult Tetranychus cinnabarinus and the base number was investigated, whole plants were sprayed with a hand-held sprayer. The experiment was repeated three times for each treatment, after treatment, placed in a standard observation room after treatment, to investigate the survival number of mites in 48 hand calculate the death rate.

[3] = system: Tetranychus cinnabarinus Nymphs; assay: Activity assay of Tetranychus cinnabarinus nymphs (spray on broad bean leaves); conditions: concentration 2.5 mg/L; 48 h
Method: According to the solubility of the test compound, the crude drug was dissolved in N, N-dimethylformamide, and then prepared into a test solution of the desired concentration with 1‰ Tween 80 aqueous solution. The content of N,N-dimethylformamide in the solution should not exceed 10%.
The broad bean leaves with petioles were cut and inserted into a small bottle with water. A certain number of brightly colored, active female adult mites were placed, 24h later, adult mites were removed, and leaves with insufficient eggs were removed. When eggs were hatched and grew into nymphs, spray treatment was performed. The experiment was repeated three times, and a blank control was set, and placed to an observation room (26±2° C., humidity 70%˜80%, 16h light per day) for culture. 48 h later, the results were investigated. The nymphs were gently touched during investigation, and if no response, they were regarded as deaths.

Structure (SMILES) | ovicidal activity [1] [%] | adult mite-killing activity [2] [%] | nymph-killing activity [3] [%]
CCn1nc(C)c(C)c1/C(OC(C)OC(=O)OCC(=O)OC)=C(\C#N)c1ccc(C(C)(C)C)cc1 (stereo not drawn) [Compound 989] | ≥ 90 | ≥ 90 | ≥ 95
CCC(OC(=O)COC)O/C(=C(/C#N)c1ccc(C(C)(C)C)cc1)c1cc(C)nn1C (racemic) [Compound 58] | ≥ 90 | ≥ 90 | ≥ 95
C#CCOC(=O)OC(C)O/C(=C(/C#N)c1ccc(C(C)(C)C)cc1)c1c(Cl)c(C)nn1CC (racemic) [Compound 796] | ≥ 90 | ≥ 90 | ≥ 95
CCCOC(=O)OC(C)O/C(=C(/C#N)c1ccc(C(C)(C)C)cc1)c1c(Cl)c(C)nn1C (racemic) [Compound 677] | ≥ 90 | ≥ 90 | ≥ 95
C=CCOC(=O)OC(C)O/C(=C(/C#N)c1ccc(C(C)(C)C)cc1)c1c(C)c(C)nn1CC (stereo not drawn) [Compound 986] | ≥ 90 | ≥ 90 | ≥ 95
CCn1nc(C)c(Cl)c1/C(OC(C)OC(=O)SCC(=O)OC)=C(\C#N)c1ccc(C(C)(C)C)cc1 (racemic) [Compound 801] | ≥ 90 | ≥ 90 | ≥ 95
CCn1nc(C)c(Cl)c1/C(OC(C)OC(=O)OCCCl)=C(\C#N)c1ccc(C(C)(C)C)cc1 (racemic) [Compound 782] | ≥ 90 | ≥ 90 | ≥ 95
CCn1nc(C)c(Cl)c1/C(OC(C)OC(=O)OCC(F)(F)F)=C(\C#N)c1ccc(C(C)(C)C)cc1 (racemic) [Compound 787] | ≥ 90 | ≥ 90 | ≥ 95
CCn1nc(C)cc1/C(OC(C)OC(=O)SCC(=O)OC)=C(\C#N)c1ccc(C(C)(C)C)cc1 (racemic) [Compound 609] | ≥ 90 | ≥ 90 | ≥ 95
CCCOC(=O)OC(C)O/C(=C(/C#N)c1ccc(C(C)(C)C)cc1)c1cc(C)nn1CC (racemic) [Compound 581] | ≥ 90 | ≥ 90 | ≥ 95
CCC(OC(C)=O)O/C(=C(/C#N)c1ccc(C(C)(C)C)cc1)c1cc(C)nn1C (racemic) [Compound 51] | ≥ 90 | ≥ 90 | ≥ 95
COC(=O)COC(=O)OC(C)O/C(=C(/C#N)c1ccc(C(C)(C)C)cc1)c1c(Cl)c(C)nn1C (racemic) [Compound 701] | ≥ 90 | ≥ 90 | ≥ 95
CCCCC(=O)OC(CC)O/C(=C(/C#N)c1ccc(C(C)(C)C)cc1)c1cc(C)nn1C (racemic) [Compound 56] | ≥ 90 | ≥ 90 | ≥ 95
Cc1nn(C)c(/C(OC(C)OC(=O)OCCC(C)C)=C(\C#N)c2ccc(C(C)(C)C)cc2)c1C (racemic) [Compound 874] | ≥ 90 | ≥ 90 | ≥ 95
Cc1cc(/C(OC(C)OC(=O)CSCC(F)(F)F)=C(\C#N)c2ccc(C(C)(C)C)cc2)n(C)n1 (racemic) [Compound 47] | ≥ 90 | ≥ 90 | ≥ 95
CCCCOC(=O)OC(C)O/C(=C(/C#N)c1ccc(C(C)(C)C)cc1)c1c(C)c(C)nn1C (racemic) [Compound 872] | ≥ 90 | ≥ 90 | ≥ 95
CCn1nc(C)c(C)c1/C(OC(C)OC(=O)OCCOC)=C(\C#N)c1ccc(C(C)(C)C)cc1 (stereo not drawn) [Compound 980] | ≥ 90 | ≥ 90 | ≥ 95
CCn1nc(C)c(C)c1/C(OCOC(=O)OCCCl)=C(\C#N)c1ccc(C(C)(C)C)cc1 [Compound 942] | ≥ 90 | ≥ 90 | ≥ 95
CCCOC(=O)OCO/C(=C(/C#N)c1ccc(C(C)(C)C)cc1)c1c(Cl)c(C)nn1C [Compound 645] | ≥ 90 | ≥ 90 | ≥ 95

Structure (SMILES) | ovicidal activity [1] [%] | adult mite-killing activity [2] [%] | nymph-killing activity [3] [%]
Cc1nn(C)c(/C(OC(C)OC(=O)OCC(F)(F)F)=C(\C#N)c2ccc(C(C)(C)C)cc2)c1Cl (racemic) [Compound 691] | ≥ 90 | ≥ 90 | ≥ 95
CCCCOC(=O)OC(C)O/C(=C(/C#N)c1ccc(C(C)(C)C)cc1)c1c(Cl)c(C)nn1C (racemic) [Compound 680] | ≥ 90 | ≥ 90 | ≥ 95
C=CCOC(=O)OCO/C(=C(/C#N)c1ccc(C(C)(C)C)cc1)c1c(Cl)c(C)nn1CC [Compound 762] | ≥ 90 | ≥ 90 | ≥ 95
CCOC(=O)OCO/C(=C(/C#N)c1ccc(C(C)(C)C)cc1)c1c(Cl)c(C)nn1C [Compound 644] | ≥ 90 | ≥ 90 | ≥ 95
CCn1nc(C)c(C)c1/C(OCOC(=O)OC(C)C)=C(\C#N)c1ccc(C(C)(C)C)cc1 [Compound 934] | ≥ 90 | ≥ 90 | ≥ 95
CCn1nc(C)c(C)c1/C(OC(C)OC(=O)OCCC(C)C)=C(\C#N)c1ccc(C(C)(C)C)cc1 (stereo not drawn) [Compound 970] | ≥ 90 | ≥ 90 | ≥ 95
CCCCOC(=O)OC(C)O/C(=C(/C#N)c1ccc(C(C)(C)C)cc1)c1c(C)c(C)nn1CC (stereo not drawn) [Compound 968] | ≥ 90 | ≥ 90 | ≥ 95
CCC(OC(=O)CC(C)C)O/C(=C(/C#N)c1ccc(C(C)(C)C)cc1)c1cc(C)nn1C (racemic) [Compound 57] | ≥ 90 | ≥ 90 | ≥ 95
C#CCOC(=O)OCO/C(=C(/C#N)c1ccc(C(C)(C)C)cc1)c1c(Cl)c(C)nn1CC [Compound 764] | ≥ 90 | ≥ 90 | ≥ 95
CCCCOC(=O)OCO/C(=C(/C#N)c1ccc(C(C)(C)C)cc1)c1c(C)c(C)nn1CC [Compound 936] | ≥ 90 | ≥ 90 | ≥ 95
COC(=O)CSC(=O)OCO/C(=C(/C#N)c1ccc(C(C)(C)C)cc1)c1c(C)c(C)nn1C [Compound 865] | ≥ 90 | ≥ 90 | ≥ 95
Cc1nn(C)c(/C(OC(C)OC(=O)OC(C)C)=C(\C#N)c2ccc(C(C)(C)C)cc2)c1Cl (racemic) [Compound 678] | ≥ 90 | ≥ 90 | ≥ 95
CCC(=O)OC(CC)O/C(=C(/C#N)c1ccc(C(C)(C)C)cc1)c1cc(C)nn1C (racemic) [Compound 52] | ≥ 90 | ≥ 90 | ≥ 95
CCn1nc(C)c(C)c1/C(OCOC(=O)SCC(=O)OC)=C(\C#N)c1ccc(C(C)(C)C)cc1 [Compound 961] | ≥ 90 | ≥ 90 | ≥ 95
CCSCC(=O)OC(C)O/C(=C(/C#N)c1ccc(C(C)(C)C)cc1)c1cc(C)nn1C (racemic) [Compound 44] | ≥ 90 | ≥ 90 | ≥ 95
CCn1nc(C)c(Cl)c1/C(OC(C)OC(=O)OCC(=O)OC)=C(\C#N)c1ccc(C(C)(C)C)cc1 (racemic) [Compound 797] | ≥ 90 | ≥ 90 | ≥ 95
CCSC(=O)OC(C)O/C(=C(/C#N)c1ccc(C(C)(C)C)cc1)c1c(C)c(C)nn1C (racemic) [Compound 896] | ≥ 90 | ≥ 90 | ≥ 95
CCCCCOC(=O)OC(C)O/C(=C(/C#N)c1ccc(C(C)(C)C)cc1)c1c(Cl)c(C)nn1C (racemic) [Compound 684] | ≥ 90 | ≥ 90 | ≥ 95
CCn1nc(C)cc1/C(OCOC(C)=O)=C(/C#N)c1ccc(C(C)(C)C)cc1 [Compound 1293] | ≥ 90 | ≥ 90 | ≥ 95
